The list does not hold the whole screen: its compounds were picked by chemical class. Not every dose and run of a compound is shown. T/C: endpoint of the treated group in % of that of the vehicle group. Where survival is the endpoint, this PubChem deposit counts one and a half times the control or more as active, and values a quarter to a half above the control carry no call in these data; other NCI protocols may use other cut-offs. Some entries show no survivor count and are marked so; the dose need not have been tolerated. Schedules are NCI's codes, read here as Q, the interval in days (D) or hours (H), X, the number of doses. Some schedule codes hold Z or #, which are not explained here. Some doses were run more than once; their values stand side by side, smallest first.
How the values were obtained:
[1] = tested on: BDF1 mice, L1210 leukemia sc, survival T/C; experiment: NCI In Vivo Anticancer Drug Screen. Data for tumor model L1210 Leukemia (subcutaneous) in B6D2F1 (BDF1) mice; conditions: T/C endpoint: median survival time, vehicle: saline, higher T/C = longer survival
Description: (§1) The antitumor activity of compounds was measured in mice bearing transplantable tumors. Survival or tumor size were measured and the results are expressed as the measurement made in the treated group (T) divided by the measurement made in the vehicle treated control group (C). The tumor model used in this assay is L1210 Leukemia (subcutaneous) in B6D2F1 (BDF1) mice

[2] = tested on: BDF1 mice, L1210 leukemia sc; experiment: as above; conditions: T/C endpoint: median survival time, vehicle: saline, higher T/C = longer survival
Description: as §1

[3] = dose: 23.0 mg/kg/injection, schedule: Q01DX Z (sc)
[4] = dose: 39.0 mg/kg/injection, schedule: Q01DX Z (sc)
[5] = dose: 65.0 mg/kg/injection, schedule: Q01DX Z (sc)
[6] = dose: 108.0 mg/kg/injection, schedule: Q01DX Z (sc)
[7] = dose: 180.0 mg/kg/injection, schedule: Q01DX Z (sc)

O[C@@H](CNCCCl)[C@@H](O)CNCCCl
T/C ([1]; dose: 5.0 mg/kg/injection, schedule: Q01DX Z (sc)): 105 % of control [survivor count not shown] | T/C ([1]; dose: 8.4 mg/kg/injection, schedule: Q01DX Z (sc)): 110 % of control [survivor count not shown] | T/C [1, 3]: 163 % of control [survivor count not shown] | T/C [1, 4]: 152 % of control [survivor count not shown] | T/C [2, 5]: 136 % of control [survivor count not shown] | T/C [2, 6]: 136 % of control [survivor count not shown] | T/C [2, 7]: 126 % of control [survivor count not shown]

NC1CCCCC1.NP(=O)(O)N(CCCl)CCCl
T/C ([1]; dose: 8.4 mg/kg/injection, schedule: Q01DX Z (ip)): 86 % of control [survivor count not shown] | T/C ([1]; dose: 14.0 mg/kg/injection, schedule: Q01DX Z (ip)): 91 % of control [survivor count not shown] | T/C ([1]; dose: 14.0 mg/kg/injection, schedule: Q01DX Z (sc)): 106 % of control [survivor count not shown] | T/C ([1]; dose: 23.0 mg/kg/injection, schedule: Q01DX Z (ip)): 95 % of control [survivor count not shown] | T/C [1, 3]: 100 [survivor count not shown] and 112 % of control [survivor count not shown] | T/C ([1]; dose: 23.0 mg/kg/injection, schedule: Q02DX Z (sc)): 111 % of control [survivor count not shown] | T/C ([1]; dose: 39.0 mg/kg/injection, schedule: Q01DX Z (ip)): 104 % of control [survivor count not shown] | T/C [1, 4]: 113 % of control [survivor count not shown] | T/C ([1]; dose: 39.0 mg/kg/injection, schedule: Q02DX Z (sc)): 122 % of control [survivor count not shown] | T/C ([1]; dose: 39.0 mg/kg/injection, schedule: Q## X Z (sc)): 116 % of control [survivor count not shown] | T/C ([1]; dose: 65.0 mg/kg/injection, schedule: Q01DX001 (sc)): 122 % of control [survivor count not shown] | T/C ([1]; dose: 65.0 mg/kg/injection, schedule: Q01DX Z (ip)): 121 % of control [survivor count not shown] | T/C ([1]; dose: 65.0 mg/kg/injection, schedule: Q01DX Z (oral)): 95 % of control [survivor count not shown] | T/C [1, 5]: 168 % of control [survivor count not shown] | T/C ([1]; dose: 65.0 mg/kg/injection, schedule: Q## X Z (sc)): 111 % of control [survivor count not shown] | T/C ([1]; dose: 108.0 mg/kg/injection, schedule: Q01DX Z (ip)): 104 % of control [survivor count not shown] | T/C ([1]; dose: 108.0 mg/kg/injection, schedule: Q01DX Z (oral)): 86 % of control [survivor count not shown] | T/C [1, 6]: 117 % of control [survivor count not shown] | T/C ([1]; dose: 108.0 mg/kg/injection, schedule: Q02DX Z (sc)): 161 % of control [survivor count not shown] | T/C ([1]; dose: 108.0 mg/kg/injection, schedule: Q## X Z (sc)): 155 % of control [survivor count not shown] | T/C ([1]; dose: 180.0 mg/kg/injection, schedule: Q01DX001 (sc)): 155 % of control [survivor count not shown] | T/C ([1]; dose: 180.0 mg/kg/injection, schedule: Q01DX Z (oral)): 95 % of control [survivor count not shown] | T/C [1, 7]: 95 [survivor count not shown] and 118 % of control [survivor count not shown] | T/C ([1]; dose: 180.0 mg/kg/injection, schedule: Q## X Z (sc)): 155 % of control [survivor count not shown] | T/C ([1]; dose: 300.0 mg/kg/injection, schedule: Q01DX Z (oral)): 108 % of control [survivor count not shown] | T/C ([1]; dose: 300.0 mg/kg/injection, schedule: Q01DX Z (sc)): 106 % of control [survivor count not shown] | T/C ([1]; dose: 300.0 mg/kg/injection, schedule: Q02DX Z (sc)): 122 % of control [survivor count not shown] | T/C [2, 3]: 127 % of control [survivor count not shown] | T/C [2, 4]: 125 [survivor count not shown] and 133 % of control [survivor count not shown] | T/C [2, 5]: 134 [survivor count not shown] and 144 % of control [survivor count not shown] | T/C ([2]; dose: 65.0 mg/kg/injection, schedule: Q02DX Z (sc)): 133 % of control [survivor count not shown] | T/C ([2]; dose: 108.0 mg/kg/injection, schedule: Q01DX001 (sc)): 127 % of control [survivor count not shown] | T/C [2, 6]: 125 [survivor count not shown] and 144 % of control [survivor count not shown] | T/C [2, 7]: 133 % of control [survivor count not shown] | T/C ([2]; dose: 180.0 mg/kg/injection, schedule: Q02DX Z (sc)): 144 % of control [survivor count not shown]

Reference: PubChem BioAssay AID250 (DTP/NCI, 2004)
